# The campaign covered roughly 390,000 compounds. About 820 (0.21%) were called active. Inconclusive results, whose numbers are uncertain, are shown with a selection of clear calls. Calls come from the whole dose curve; as a rule, active = well fitted inhibition curve with a large enough effect; inconclusive = small, poorly fitted or top-dose-only effect, or another doubt; inactive = no such curve, though single readings can be large or run the other way. A potency beside an inconclusive call is a rough fit, not a confirmed value.
# By UniProt entry, the sequences of proteins in these tests, tags left out.
# UniProt Q92830, whole entry, looked up: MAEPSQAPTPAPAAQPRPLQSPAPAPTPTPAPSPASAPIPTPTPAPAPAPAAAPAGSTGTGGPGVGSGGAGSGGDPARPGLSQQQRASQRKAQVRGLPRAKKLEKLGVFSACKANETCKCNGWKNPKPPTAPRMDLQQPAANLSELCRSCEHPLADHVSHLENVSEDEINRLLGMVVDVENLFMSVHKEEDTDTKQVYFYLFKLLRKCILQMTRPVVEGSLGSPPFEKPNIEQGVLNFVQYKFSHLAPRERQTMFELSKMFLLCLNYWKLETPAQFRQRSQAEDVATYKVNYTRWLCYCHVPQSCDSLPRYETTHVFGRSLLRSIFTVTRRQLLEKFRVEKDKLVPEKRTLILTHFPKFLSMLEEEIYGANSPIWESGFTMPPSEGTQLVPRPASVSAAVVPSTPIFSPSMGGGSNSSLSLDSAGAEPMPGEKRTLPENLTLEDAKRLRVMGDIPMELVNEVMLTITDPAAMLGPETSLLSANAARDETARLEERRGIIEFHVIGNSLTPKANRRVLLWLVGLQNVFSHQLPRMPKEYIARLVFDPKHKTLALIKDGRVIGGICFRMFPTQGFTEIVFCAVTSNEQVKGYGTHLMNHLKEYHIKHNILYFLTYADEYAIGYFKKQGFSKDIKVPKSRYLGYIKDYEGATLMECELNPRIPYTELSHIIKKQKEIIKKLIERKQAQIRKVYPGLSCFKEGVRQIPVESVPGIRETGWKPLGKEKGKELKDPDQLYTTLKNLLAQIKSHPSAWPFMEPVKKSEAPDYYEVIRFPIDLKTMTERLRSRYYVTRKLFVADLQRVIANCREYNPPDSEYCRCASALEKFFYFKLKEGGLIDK
# Target: Histone acetyltransferase KAT2A (Homo sapiens) (UniProt Q92830)
# Assay: qHTS Assay for Inhibitors of GCN5L2
# Conditions: GCN5L2 HAT assay, ThioGlo1 CoA-SH fluorescence; activity change, negative = inhibition: at 58.9 µM (top of the series) unless noted
# In short: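 GCN5L2 (20 nM) in 50mM HEPES pH 7.5, 0.1mM EDTA, 0.01% Tween-20 preincubated 15 min with compounds at room temperature. Reaction started with H3(1-25) 75uM, acetyl-CoA 70uM, ThioGlo1 50uM; CoA-thiol fluorescence (Ex340/Em540) read at 0 and 20 min.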
# % is set by controls: 0 for no effect and ±100 for the full control effect; potency is the fitted concentration of half-maximal effect.
SMILES,Potency,"activity change, negative = inhibition"
CCOc1ccc(N2C(=O)CC(Cc3cc(C)cc(C)c3)C2=O)cc1 (configuration not stated),"inconclusive: 0.891 µM [inhibitor, single point]",–
CCOC(=O)CN(C(=O)c1snc(C(N)=O)c1N)C(C(=O)NCCC(C)C)c1ccc(F)cc1 (configuration not stated),"inconclusive: 39.8 µM [inhibitor, single point]",–
CCOC(=O)CSc1nc2c(sc(=S)n2-c2ccccc2OC)c(=O)n1-c1ccccc1OC,–,inactive: -9.02%
CCCCN1C(=O)C(=O)N(CC(=O)c2ccc3c(c2)OCO3)C1=O,–,inactive: -1%
Cc1ccccc1-n1nc(C)c2cc(C(=O)NC3CC3)sc21,–,inconclusive: -72.8% [inhibitor]
Cc1cc(C)cc(NC(=O)N2CCc3ccccc3C2)c1,"inconclusive: 31.6 µM [inhibitor, single point]",–
Cc1c(Cl)cccc1NC(=O)CSc1nccn1C,"inconclusive: 2.82 µM [inhibitor, full curve, poor fit]",–
CC(=O)NCCNc1ncnc2ccc(-c3ccoc3)cc12,active: 25.1 µM,–
COc1ccc(/C(C)=N/Nc2nc(C)c(C(C)=O)s2)cc1,–,inactive: -0.702%
CCn1c(SCC(=O)Nc2ccc3c(c2)OCCO3)nc2c(c1=O)SC(C)C2 (configuration not stated),"inconclusive: 6.31 µM [inhibitor, single point]",–
CSc1nncn1/N=C/c1ccc2c(c1)OCO2,"inconclusive: 39.8 µM [inhibitor, single point]",–
O=C(O)CCCCCNS(=O)(=O)c1ccc2c3c(cccc13)C(=O)N2,"inconclusive: 11.2 µM [inhibitor, partial curve]",–
Cc1ccc(C)c(N(CC(=O)N2CCCC2)S(C)(=O)=O)c1,"inconclusive: 3.98 µM [inhibitor, single point]",–
O=C1c2ccc(Cl)cc2S(=O)(=O)c2cccc(C(=O)N3CCC(Cc4ccccc4)CC3)c21,"inconclusive: 31.6 µM [inhibitor, single point]",–
COc1cc(CN2CCN(C(O)(c3ccccc3)c3ccccc3)CC2)cc(OC)c1OC,"inconclusive: 39.8 µM [inhibitor, single point]",–
COc1ccc(-n2c(=O)c3c(c4cc(OC)ccc4n3C)n(Cc3ccc(F)cc3Cl)c2=O)cc1,"inconclusive: 0.562 µM [inhibitor, single point]",–
Cc1ccc(S(=O)(=O)NN=C2C3CC4CC(C3)CC2C4)cc1,"inconclusive: 31.6 µM [inhibitor, single point]",–
O=C(NCCc1cccc(F)c1)C1CCC(=O)N(C2CCCCCC2)C1 (configuration not stated),"inconclusive: 7.08 µM [inhibitor, single point]",–
CC(C)(C)c1ccc(C(=O)O/N=C(\N)c2ccccn2)cc1,–,inactive: -6.54%
CCc1ccccc1NC(=O)Cn1c(=O)n(Cc2ccco2)c(=O)c2sc3ccccc3c21,–,inactive: -4.59%
CC(=O)c1ccc(S(=O)(=O)NC2CC(=O)N(c3ccc(Cl)cc3)C2)cc1 (configuration not stated),"inconclusive: 11.2 µM [inhibitor, partial curve]",–

# A draw from above in order of heavy-atom count, smallest number first.
SMILES,Potency,"activity change, negative = inhibition"
CSc1nncn1/N=C/c1ccc2c(c1)OCO2,"inconclusive: 39.8 µM [inhibitor, single point]",–
Cc1c(Cl)cccc1NC(=O)CSc1nccn1C,"inconclusive: 2.82 µM [inhibitor, full curve, poor fit]",–
Cc1cc(C)cc(NC(=O)N2CCc3ccccc3C2)c1,"inconclusive: 31.6 µM [inhibitor, single point]",–
Cc1ccccc1-n1nc(C)c2cc(C(=O)NC3CC3)sc21,–,inconclusive: -72.8% [inhibitor]
O=C(O)CCCCCNS(=O)(=O)c1ccc2c3c(cccc13)C(=O)N2,"inconclusive: 11.2 µM [inhibitor, partial curve]",–
O=C(NCCc1cccc(F)c1)C1CCC(=O)N(C2CCCCCC2)C1 (configuration not stated),"inconclusive: 7.08 µM [inhibitor, single point]",–
CCn1c(SCC(=O)Nc2ccc3c(c2)OCCO3)nc2c(c1=O)SC(C)C2 (configuration not stated),"inconclusive: 6.31 µM [inhibitor, single point]",–
CCc1ccccc1NC(=O)Cn1c(=O)n(Cc2ccco2)c(=O)c2sc3ccccc3c21,–,inactive: -4.59%
CCOC(=O)CSc1nc2c(sc(=S)n2-c2ccccc2OC)c(=O)n1-c1ccccc1OC,–,inactive: -9.02%

# (cont.)

SMILES,Potency,"activity change, negative = inhibition"
COc1ccc(C(=O)c2cn[nH]c2-c2ccc(C)cc2O)cc1,"inconclusive: 3.55 µM [inhibitor, single point]",–
COc1ccc(Cc2nnc(N/N=C(\C)c3ccccc3)[nH]c2=O)cc1OC,"inconclusive: 8.91 µM [inhibitor, single point]",–
Cc1cc(O)ccc1N/C=C(\C#N)c1nc2ccccc2o1,"inconclusive: 1 µM [inhibitor, full curve, poor fit]",–
COc1ccc(C2c3[nH]c4ccccc4c3C[C@H]3C(=O)N(CCCO)CC(=O)N23)cc1OC (some centres not stated),"inconclusive: 39.8 µM [inhibitor, single point]",–
Cc1nc(Nc2ccc(S(=O)(=O)N3CCCCC3C)cc2)c2nnn(Cc3ccccc3)c2n1 (configuration not stated),"inconclusive: 15.8 µM [inhibitor, single point]",–
O=C(O)c1ccc(N/N=C/c2ccc(-c3ccccc3)cc2)cc1,"inconclusive: 35.5 µM [inhibitor, single point]",–
CCOC(=O)c1c(NC(=O)C(=O)N/N=C/c2ccc(OCC)cc2)sc2c1CCCCC2,–,inactive: -5.14%
O=C(O)c1ccc2c3c1cccc3c(=O)n1c3ccccc3nc21,"inconclusive: 11.2 µM [inhibitor, partial curve, poor fit]",–
Cn1c2ccccc2c2c3c(c4c5ccccc5n(CCC#N)c4c21)CNC3=O,"inconclusive: 31.6 µM [inhibitor, single point]",–
COc1cc2c(cc1OC)C(NNC(=O)c1ccc(Br)o1)=NC(C)(C)C2,–,inactive: -0.253%
O=c1cc(-c2ccc(O)c(O)c2)oc2cc(O)c([C@@H]3O[C@H](CO)[C@@H](O)[C@H](O)[C@H]3O)c(O)c12,–,inactive: -9.26%
CCCCN(CCCC)c1ccc(C(=O)c2ccccc2C(=O)O)c(O)c1,"inconclusive: 39.8 µM [inhibitor, single point]",–
O=C(NCc1ccc2c(c1)OCO2)C1CC(=O)N(CCc2ccc(Cl)cc2)C1 (configuration not stated),"inconclusive: 4.47 µM [inhibitor, full curve, poor fit]",–
Cc1[nH]nc2c1C(c1ccc(-c3ccccc3C#N)o1)C(C#N)=C(N)O2 (configuration not stated),–,inactive: -4.05%
CNC(=O)COC(=O)c1cc2c(C)nn(-c3ccc(F)cc3)c2s1,"inconclusive: 5.01 µM [inhibitor, single point]",–
CCC(COC)NC(=O)CCc1nnc(Cc2cccc(C(F)(F)F)c2)o1 (configuration not stated),"inconclusive: 31.6 µM [inhibitor, single point]",–
COc1ccc(CCNc2oc(-c3cccc4ccccc34)nc2P(=O)(OC)OC)cc1OC,"inconclusive: 28.2 µM [inhibitor, single point]",–
CCN(CC)CC#CCC1(O)c2ccccc2-c2ccccc21,"inconclusive: 31.6 µM [inhibitor, single point]",–
COC(=O)c1c(-c2cccs2)csc1NC(=O)c1ccc(OC)c(OC)c1,"inconclusive: 35.5 µM [inhibitor, single point]",–
CCCn1c(=O)c2[nH]c(-c3ccc(S(=O)(=O)O)cc3)nc2n(CCC)c1=O,inactive,–
O=C(COc1ccccc1F)Nc1nc(-c2ccccn2)cs1,"inconclusive: 14.1 µM [inhibitor, partial curve]",–

# Reference: PubChem BioAssay AID504327 (National Center for Advancing Translational Sciences (NCATS), 2011)
